Data: the RNAGym collection of RNA variant scans (doi:10.1126/science.aae0568)
Variants at the floor of the assay are shown more often than the library holds them.

B1: tRNA (parent)
chain: GUUCCGUUGGCGUAAUGGUAACGCGUCUCCCUCCUAAGGAGAAGACUGCGGGUUCGAGUCCCGUACGGAACG

Variants of: B1
Test: yeast fitness relative to wild type (ratio to wild type); higher = fitter; tRNA-Arg(CCU), competitive growth, 37 C, YPD
Outline: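 The tRNA-Arg(CCU) gene variants were made by chemical synthesis with a 3% per-site mutation rate at 69 sites and inserted at the native genomic locus of Saccharomyces cerevisiae. After pooling, the strains were competed in YPD at 37°C for 24 hours in six parallel replicates. Gene amplicons from the start population and each end population were read by 100-nucleotide paired-end sequencing, and Darwinian fitness relative to wild type was taken from genotype frequency changes. Genotypes needed ≥ 100 starting reads, and estimates < 0.5 were set to 0.5.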

**Q.** With C22G C30A G41C A42U as the variant, how does the yeast fitness read?
**A.** Its yeast fitness is ≤ 0.5.

**Q.** Which yeast fitness does the source give for C22G C30U C49A G52A C61G A70U here?
**A.** Its yeast fitness is ≤ 0.5.

**Q.** For C22G C31G U35A A42U C49U C55G C61U A65C, which yeast fitness is on record?
**A.** Its yeast fitness is ≤ 0.5.

**Q.** For C22G C31U A43U G51A C61A, which yeast fitness is on record?
**A.** The yeast fitness was ≤ 0.5.

**Q.** For C22G C34A G67U, which yeast fitness is on record?
**A.** The yeast fitness was ≤ 0.5.

**Q.** With C22G C34G C61G as the variant, how does the yeast fitness read?
**A.** The yeast fitness was ≤ 0.5.

**Q.** For C22G C49A, which yeast fitness is on record?
**A.** Its yeast fitness is 0.682.

**Q.** For C22G C60A C62U U64C, which yeast fitness is on record?
**A.** Its yeast fitness is ≤ 0.5.

**Q.** Which yeast fitness does the source give for C22G G52A here?
**A.** Its yeast fitness is 0.772.

**Q.** With C22G G52C C61G as the variant, how does the yeast fitness read?
**A.** Its yeast fitness is ≤ 0.5.

**Q.** Which yeast fitness does the source give for C22G U32C A37G U53C here?
**A.** Its yeast fitness is ≤ 0.5.

**Q.** Which yeast fitness does the source give for C22G U35C G48A A57C here?
**A.** Its yeast fitness is ≤ 0.5.

**Q.** For C22G U47A G52A, which yeast fitness is on record?
**A.** The yeast fitness was ≤ 0.5.

**Q.** Which yeast fitness does the source give for C22G U64C here?
**A.** The yeast fitness was 0.856.

**Q.** For C22U A36C G67A, which yeast fitness is on record?
**A.** Its yeast fitness is ≤ 0.5.

**Q.** With C22U A36U C61A as the variant, how does the yeast fitness read?
**A.** The yeast fitness was ≤ 0.5.

**Q.** With C22U A37G A45U G52A G68A as the variant, how does the yeast fitness read?
**A.** The yeast fitness was ≤ 0.5.

**Q.** For C22U A37U U47A A70C, which yeast fitness is on record?
**A.** Its yeast fitness is ≤ 0.5.

**Q.** With C22U A42G C62G as the variant, how does the yeast fitness read?
**A.** Its yeast fitness is ≤ 0.5.

**Q.** Which yeast fitness does the source give for C22U A43C C66G A69U here?
**A.** The yeast fitness was ≤ 0.5.

**Q.** Which yeast fitness does the source give for C22U C24A U28G U53G U54A G58C here?
**A.** The yeast fitness was ≤ 0.5.

**Q.** With C22U C24U A37U G51A U54A U59C as the variant, how does the yeast fitness read?
**A.** Its yeast fitness is ≤ 0.5.

**Q.** Which yeast fitness does the source give for C22U C27G A40C C49A A70U here?
**A.** The yeast fitness was ≤ 0.5.

**Q.** For C22U C27U C33G G44C A65U, which yeast fitness is on record?
**A.** Its yeast fitness is 0.574.

**Q.** For C22U C29A C30G A45U C66A, which yeast fitness is on record?
**A.** Its yeast fitness is ≤ 0.5.

**Q.** For C22U C30A C31U G67U, which yeast fitness is on record?
**A.** Its yeast fitness is ≤ 0.5.

**Q.** For C22U C30G C61U A65C C66U, which yeast fitness is on record?
**A.** The yeast fitness was ≤ 0.5.

**Q.** With C22U C31G C49U A65G as the variant, how does the yeast fitness read?
**A.** The yeast fitness was ≤ 0.5.

**Q.** Which yeast fitness does the source give for C22U C33U G52A here?
**A.** Its yeast fitness is 0.566.

**Q.** Which yeast fitness does the source give for C22U C49G here?
**A.** Its yeast fitness is 0.87.

**Q.** For C22U C49U U54G C55G G67A A70G, which yeast fitness is on record?
**A.** Its yeast fitness is ≤ 0.5.

**Q.** For C22U C55A, which yeast fitness is on record?
**A.** The yeast fitness was ≤ 0.5.

**Q.** Which yeast fitness does the source give for C22U C55G A57C here?
**A.** Its yeast fitness is ≤ 0.5.

**Q.** With C22U C60G A70G as the variant, how does the yeast fitness read?
**A.** Its yeast fitness is ≤ 0.5.

**Q.** Which yeast fitness does the source give for C22U C60U C61A here?
**A.** The yeast fitness was ≤ 0.5.

**Q.** For C22U G23C U26C C30A G52A, which yeast fitness is on record?
**A.** Its yeast fitness is ≤ 0.5.

**Q.** With C22U G25A C34U A57U A65C C66G as the variant, how does the yeast fitness read?
**A.** The yeast fitness was ≤ 0.5.

**Q.** Which yeast fitness does the source give for C22U G25C here?
**A.** Its yeast fitness is 0.697.

**Q.** Which yeast fitness does the source give for C22U G25C U28C A36G G51A here?
**A.** The yeast fitness was ≤ 0.5.

**Q.** For C22U G51C G58A, which yeast fitness is on record?
**A.** Its yeast fitness is ≤ 0.5.

**Q.** Which yeast fitness does the source give for C22U G52A C60G A70U here?
**A.** The yeast fitness was ≤ 0.5.

**Q.** For C22U G68A, which yeast fitness is on record?
**A.** Its yeast fitness is 0.852.

**Q.** With C22U U26A C66A as the variant, how does the yeast fitness read?
**A.** Its yeast fitness is ≤ 0.5.

**Q.** For C22U U28C C29G C33A C62U G63A U64A, which yeast fitness is on record?
**A.** The yeast fitness was ≤ 0.5.

**Q.** Which yeast fitness does the source give for C22U U28C C34A A40U C60U here?
**A.** The yeast fitness was ≤ 0.5.

**Q.** Which yeast fitness does the source give for C22U U28C U54A A69U here?
**A.** The yeast fitness was ≤ 0.5.

**Q.** Which yeast fitness does the source give for C22U U32A G41A C55G here?
**A.** The yeast fitness was ≤ 0.5.

**Q.** Which yeast fitness does the source give for C22U U32A G56C C60A C62G here?
**A.** The yeast fitness was ≤ 0.5.

**Q.** For C22U U32G C34U A40G U47C, which yeast fitness is on record?
**A.** Its yeast fitness is ≤ 0.5.

**Q.** With G23A A36C G38A C60G C62G as the variant, how does the yeast fitness read?
**A.** Its yeast fitness is ≤ 0.5.

**Q.** Which yeast fitness does the source give for G23A A36U G39C A65G C66U here?
**A.** The yeast fitness was ≤ 0.5.

**Q.** With G23A A40C U54A U59A as the variant, how does the yeast fitness read?
**A.** Its yeast fitness is ≤ 0.5.

**Q.** For G23A C24G C29U G41A A69U, which yeast fitness is on record?
**A.** Its yeast fitness is ≤ 0.5.

**Q.** Which yeast fitness does the source give for G23A C33G C46G here?
**A.** The yeast fitness was ≤ 0.5.

**Q.** With G23A C33G C49A as the variant, how does the yeast fitness read?
**A.** Its yeast fitness is ≤ 0.5.

**Q.** For G23A C33U G41A C60G, which yeast fitness is on record?
**A.** Its yeast fitness is ≤ 0.5.

**Q.** With G23A C46A C49A as the variant, how does the yeast fitness read?
**A.** Its yeast fitness is ≤ 0.5.

**Q.** For G23A C62U A65C, which yeast fitness is on record?
**A.** Its yeast fitness is 0.582.

**Q.** Which yeast fitness does the source give for G23A U59C here?
**A.** Its yeast fitness is 0.799.

**Q.** For G23A U64C A65U, which yeast fitness is on record?
**A.** Its yeast fitness is ≤ 0.5.

**Q.** For G23C A37G A42U G48C C49U, which yeast fitness is on record?
**A.** The yeast fitness was ≤ 0.5.

**Q.** Which yeast fitness does the source give for G23C A42C G50C C66U here?
**A.** Its yeast fitness is ≤ 0.5.

**Q.** For G23C C27G C31A A45U, which yeast fitness is on record?
**A.** Its yeast fitness is ≤ 0.5.

**Q.** With G23C C27G U53G as the variant, how does the yeast fitness read?
**A.** The yeast fitness was ≤ 0.5.

**Q.** With G23C C29A A37G as the variant, how does the yeast fitness read?
**A.** Its yeast fitness is ≤ 0.5.

**Q.** With G23C C30G as the variant, how does the yeast fitness read?
**A.** The yeast fitness was 0.511.

**Q.** Which yeast fitness does the source give for G23C C34A here?
**A.** The yeast fitness was ≤ 0.5.

**Q.** Which yeast fitness does the source give for G23C C34G here?
**A.** Its yeast fitness is ≤ 0.5.

**Q.** For G23C C34G A36U U54G C62G, which yeast fitness is on record?
**A.** The yeast fitness was ≤ 0.5.

**Q.** With G23C C49A C62A as the variant, how does the yeast fitness read?
**A.** The yeast fitness was ≤ 0.5.

**Q.** Which yeast fitness does the source give for G23C C55G C62A here?
**A.** The yeast fitness was ≤ 0.5.

**Q.** With G23C C61G G67A G68C as the variant, how does the yeast fitness read?
**A.** The yeast fitness was ≤ 0.5.

**Q.** Which yeast fitness does the source give for G23C C66G here?
**A.** Its yeast fitness is ≤ 0.5.

**Q.** With G23C G25C U35A A42U A70G as the variant, how does the yeast fitness read?
**A.** The yeast fitness was ≤ 0.5.

**Q.** With G23C G38A G48A C49G as the variant, how does the yeast fitness read?
**A.** Its yeast fitness is ≤ 0.5.

**Q.** Which yeast fitness does the source give for G23C G44C C46U here?
**A.** Its yeast fitness is ≤ 0.5.

**Q.** For G23C U26G C33G A45C, which yeast fitness is on record?
**A.** The yeast fitness was ≤ 0.5.

**Q.** For G23C U28A G44C G56A C62G, which yeast fitness is on record?
**A.** Its yeast fitness is ≤ 0.5.

**Q.** For G23C U35C C46U, which yeast fitness is on record?
**A.** Its yeast fitness is ≤ 0.5.

**Q.** For C24A A36C G52C A57U C66U, which yeast fitness is on record?
**A.** The yeast fitness was ≤ 0.5.

**Q.** With C24A A37G as the variant, how does the yeast fitness read?
**A.** Its yeast fitness is 0.513.

**Q.** With C24A A43C G56A as the variant, how does the yeast fitness read?
**A.** The yeast fitness was ≤ 0.5.

**Q.** For C24A A43G G52A A69U A70C, which yeast fitness is on record?
**A.** Its yeast fitness is ≤ 0.5.

**Q.** For C24A A45G U54A, which yeast fitness is on record?
**A.** Its yeast fitness is ≤ 0.5.
